We go through two molecules from US20150210768A1, “Methods and Compounds for Preventing, Treating and Diagnosing an Inflammatory Condition” (Westfaelische Wilhelms-Universitaet Muenster, priority 2012, published 2015).

Chains of the proteins cited; added tags and fusions are not shown. Lines headed by an entry give the natural chain unless they say otherwise; changes in a name come on top.
UniProt O00206: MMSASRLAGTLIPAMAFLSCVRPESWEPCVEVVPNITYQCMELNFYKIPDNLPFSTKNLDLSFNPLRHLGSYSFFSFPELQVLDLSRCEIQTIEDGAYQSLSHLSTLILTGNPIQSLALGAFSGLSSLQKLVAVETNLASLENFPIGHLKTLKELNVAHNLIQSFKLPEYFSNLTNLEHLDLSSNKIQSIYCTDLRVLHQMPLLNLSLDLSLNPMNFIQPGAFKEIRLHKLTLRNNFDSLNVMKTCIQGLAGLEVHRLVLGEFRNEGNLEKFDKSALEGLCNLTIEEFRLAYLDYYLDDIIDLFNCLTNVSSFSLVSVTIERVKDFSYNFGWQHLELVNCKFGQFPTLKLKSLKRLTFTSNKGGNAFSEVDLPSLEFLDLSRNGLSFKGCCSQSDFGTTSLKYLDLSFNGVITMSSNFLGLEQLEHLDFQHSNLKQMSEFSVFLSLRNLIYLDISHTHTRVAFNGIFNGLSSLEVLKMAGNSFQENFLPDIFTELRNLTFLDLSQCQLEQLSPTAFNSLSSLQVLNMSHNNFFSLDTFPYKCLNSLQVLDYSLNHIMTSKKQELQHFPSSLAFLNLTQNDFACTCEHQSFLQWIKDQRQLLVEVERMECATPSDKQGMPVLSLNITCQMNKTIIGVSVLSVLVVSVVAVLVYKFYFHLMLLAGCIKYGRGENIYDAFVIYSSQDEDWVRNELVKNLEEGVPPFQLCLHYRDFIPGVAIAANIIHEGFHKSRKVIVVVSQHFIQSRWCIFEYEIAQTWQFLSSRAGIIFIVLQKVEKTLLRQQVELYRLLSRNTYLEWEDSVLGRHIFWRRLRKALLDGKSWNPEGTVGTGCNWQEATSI

The target of the test is T1, his-tagged rhTLR4/MD2 (human, UniProt O00206 24-631; Q9Y6Y9 19-160).
T1 construct: Bought recombinant human complex (carrier free, R&D SYSTEMS), his-tagged; In the pull-down it was captured by anti-His antibody on Protein A/G agarose; in the ELISA it was coated on the plate; also called TLR4/MD2 complex; TRLR4/MD2
Nature of the test: pull-down on beads carrying TLR4/MD2, MALDI-TOF mass spectrometry of the eluate. The method, then:
Anti-His antibody (5 μL, 0.5 mg/mL, Invivogen) and his-tagged rhTLR4/MD2 (5 μL, 1 mg/mL, carrier free, R&D SYSTEMS) were mixed and coupled to Protein A/G Agarose (50 μl, Pierce, Thermo Scientific). Trypsin digested peptides of S100A9 were added for 3 h at 4° C. in the presence of 1 mM Calcium. After washing of the beads in HBS/1 mM Ca-buffer for three times bound peptidic fragments were eluted by addition of 10 mM TRIS/2 mM EDTA-buffer and analysed by ESI-QIT- and MALDI-TOF-mass spectrometry. Identical experiments were performed to analyze the binding of the chemical synthesized peptides of S100A9 (aa63-79), S100A8 (aa55-71) and the corresponding control peptides aa63-79 AS and aa55-71 A3.

No constants are given. Whether binding was seen depends on the method and setting. In cells and extracts the contact can be indirect. These calls come from enrichment with a bait or labelling near it, and not all partners need be listed.

B1: synthetic peptide having the amino acid sequence of positions 55-71 of human S100A8 (…) (peptide)
peptide: FKELDINTDGAVNFQEF
As for B1, the binding entry is “binds”.

B2: synthetic peptide corresponding to amino acid positions 63-79 of S100A9 (…) (peptide)
peptide: MEDLDTNADKQLSFEEF
For the molecule B2, the binding entry is on record as “binds”.
